According to patent US20160096891A1 (AstraZeneca / MedImmune, published 2016):
Results are given in words; binding and its absence hold for the method and conditions named. Some results given as binding are weak or reduced against the parent protein; the word gives no strength. For some assays here: Sequences can lack the tags named with a protein.

T1: CD28H (counter-receptor of B7-H5) (human) (UniProt Q96BF3)
T1 sequence: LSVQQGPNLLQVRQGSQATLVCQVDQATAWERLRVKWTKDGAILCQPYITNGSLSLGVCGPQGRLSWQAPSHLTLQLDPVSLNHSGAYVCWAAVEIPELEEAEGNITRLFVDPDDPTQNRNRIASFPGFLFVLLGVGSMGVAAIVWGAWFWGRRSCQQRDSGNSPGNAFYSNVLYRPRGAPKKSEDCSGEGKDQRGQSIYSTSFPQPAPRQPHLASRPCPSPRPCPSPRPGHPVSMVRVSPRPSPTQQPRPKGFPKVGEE


Columns and labels:
[1] = biological target: T1, CD28H (counter-receptor of B7-H5) (human); assay: inferred from T cell stimulation assay with B7-H5 Ig
[2] = biological target: B7-H5 Ig fusion (extracellular domain of B7-H5 fused to a murine IgG2a sequence) (human); assay: inhibition of B7-H5 Ig stimulation of T cells (figure legend)

Row | Binder | binding [1] | binding [2]
1 | B7-H5 Ig fusion (extracellular domain of B7-H5 fused to a murine IgG2a sequence) (Fc fusion) IFPLAFFIYVPMNEQIVIGRLDEDIILPSSFERGSEVVIHWKYQDSYKVHSYYKGSDHLESQDPRYANRTSLFYNEIQNGNASLFFRRVSLLDEGIYTCYVGTAIQVITNKVVLKVGVFLTPVMKYEKRNTNSFLICSVLSVYPRPIITWKMDNTPISENNMEETGSLDSFSINSPLNITGSNSSYECTIENSLLKQTWTGRWTMKDGLHKMQSEHVSLSCQPVNDYFSPNQDFKVTWSRMKSGTFSVLAYYLSSSQNTIINESRFSWNKELINQSDFSMNLMDLNLSDSGEYLCNISSDEYTLLTIHTVHVEPSQETEPRGPTIKPCPPCKCPAPNLLGGPSVFIFPPKIKDVLMISLSPIVTCVVVDVSEDDPDVQISWFVNNVEVHTAQTQTHREDYNSTLRVVSALPIQHQDWMSGKEFKCKVNNKDLPAPIERTISKPKGSVRAPQVYVLPPPEEEMTKKQVTLTCMVTDFMPEDIYVEWTNNGKTELNYKNTEPVLDSDGSYFMYSKLRVEKKNWVERNSYSCSVVHEGLHNHHTTKSFSRTPGK | binds | 
2 | anti-human B7-H5 antibody 2D3 (hybridoma clone 2D3) (antibody, V domains shown, constant regions are not; also called Anti-Human B7-H5 Clone 2D3; 2D3 mAb) VH: QVQLQQSGAELVKPGASVKLSCKASGYTFTSHDINWVRQRPELGLEWIGWIFPGDGSTKFNEKFKGKATLTTDKSSSTAYIQLSRLTSEDSAVYFCARNSFYSMDYWGQGTSVTVSS VL: DIVMSQSPSSLAVSAGEKVTMSCKSSQSLLNSRTRKNQLAWYQQKPGQSPKLLIYWAFIRESGVPDRFTGSGSGTDFTLTISSVQAEDLAVYYCKQSYNLRTFGGGTKLEIK |  | binds
